Source: article PMC12046003
Results are given in words; binding and its absence hold for the method and conditions named. Binding seen in cells or lysates may run through a third protein. Some results given as binding are weak or reduced against the parent protein; the word gives no strength. Where a sequence is shown, tags or fusion partners need not be part of it.

Protein sequences, listed by entry. Tags and fused reporters are not part of them.
UniProt P06803: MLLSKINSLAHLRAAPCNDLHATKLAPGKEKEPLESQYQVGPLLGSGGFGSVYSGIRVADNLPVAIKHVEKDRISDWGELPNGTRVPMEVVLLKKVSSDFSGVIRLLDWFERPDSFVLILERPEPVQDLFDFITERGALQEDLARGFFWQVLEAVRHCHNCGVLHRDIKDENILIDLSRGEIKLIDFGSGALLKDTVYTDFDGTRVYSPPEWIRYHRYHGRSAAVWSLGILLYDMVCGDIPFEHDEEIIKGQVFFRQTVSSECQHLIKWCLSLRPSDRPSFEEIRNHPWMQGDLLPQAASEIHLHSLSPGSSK
UniProt P31749: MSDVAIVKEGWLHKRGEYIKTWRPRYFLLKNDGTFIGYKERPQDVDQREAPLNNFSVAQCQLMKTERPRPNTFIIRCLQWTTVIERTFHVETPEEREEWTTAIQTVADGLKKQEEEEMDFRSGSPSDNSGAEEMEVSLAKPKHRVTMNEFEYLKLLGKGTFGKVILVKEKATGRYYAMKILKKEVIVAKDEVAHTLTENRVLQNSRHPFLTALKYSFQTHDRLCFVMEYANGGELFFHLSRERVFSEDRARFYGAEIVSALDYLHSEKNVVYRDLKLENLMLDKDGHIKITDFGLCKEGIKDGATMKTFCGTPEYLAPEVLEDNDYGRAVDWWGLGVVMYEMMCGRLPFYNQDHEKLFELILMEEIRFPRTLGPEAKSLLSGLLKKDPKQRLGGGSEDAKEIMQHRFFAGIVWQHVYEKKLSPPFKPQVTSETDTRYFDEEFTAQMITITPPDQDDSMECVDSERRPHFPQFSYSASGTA

Tests used:
Experiment in all cases: co-IP; HEK 293T cells transfected 36 h with the indicated plasmids, lysed in RIPA buffer; immunoprecipitation with anti-Flag antibody overnight at 4 °C, protein G or A Sepharose; immunoblot
[1] = molecular target: T1, Flag-tagged TRAF6 coiled-coil TRAF-N domain and TRAF-C domain (amino acids 289-530) (mouse) (UniProt P70196)
T1 sequence: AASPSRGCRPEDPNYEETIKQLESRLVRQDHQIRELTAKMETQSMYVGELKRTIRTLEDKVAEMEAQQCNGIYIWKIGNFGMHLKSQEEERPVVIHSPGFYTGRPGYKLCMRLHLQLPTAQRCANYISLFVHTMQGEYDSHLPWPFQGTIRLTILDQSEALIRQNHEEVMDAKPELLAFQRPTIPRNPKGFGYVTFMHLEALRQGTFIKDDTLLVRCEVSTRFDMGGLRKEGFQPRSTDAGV

[2] = molecular target: T2, Flag-tagged TRAF6 N-terminal ring and zinc-finger domains (amino acids 1-289) (mouse) (UniProt P70196)
T2 sequence: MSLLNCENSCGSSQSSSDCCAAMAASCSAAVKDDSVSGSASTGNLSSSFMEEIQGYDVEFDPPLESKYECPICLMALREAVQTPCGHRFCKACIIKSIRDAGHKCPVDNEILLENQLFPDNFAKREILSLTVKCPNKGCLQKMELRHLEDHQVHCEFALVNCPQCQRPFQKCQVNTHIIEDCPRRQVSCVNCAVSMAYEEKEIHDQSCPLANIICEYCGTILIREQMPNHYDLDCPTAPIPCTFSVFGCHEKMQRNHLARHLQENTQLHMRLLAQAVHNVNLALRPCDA

[3] = molecular target: T3, Flag-tagged full-length TRAF6 (mouse) (UniProt P70196)
T3 sequence: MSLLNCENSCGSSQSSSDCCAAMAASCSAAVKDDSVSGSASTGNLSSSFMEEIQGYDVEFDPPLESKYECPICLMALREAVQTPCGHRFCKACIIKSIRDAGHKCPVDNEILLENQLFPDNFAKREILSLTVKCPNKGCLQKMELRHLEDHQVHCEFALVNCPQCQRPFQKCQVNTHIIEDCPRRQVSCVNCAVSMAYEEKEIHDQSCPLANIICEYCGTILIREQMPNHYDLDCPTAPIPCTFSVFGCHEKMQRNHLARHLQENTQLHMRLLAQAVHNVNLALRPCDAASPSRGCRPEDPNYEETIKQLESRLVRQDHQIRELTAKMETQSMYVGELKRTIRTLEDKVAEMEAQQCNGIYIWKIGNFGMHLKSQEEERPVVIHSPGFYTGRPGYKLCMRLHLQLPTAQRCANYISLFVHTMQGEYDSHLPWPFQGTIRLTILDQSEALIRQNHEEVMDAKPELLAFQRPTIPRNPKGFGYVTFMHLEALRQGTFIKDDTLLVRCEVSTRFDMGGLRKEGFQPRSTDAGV

Row | Substance | binding [1] | binding [2] | binding [3]
1 | HA-tagged murine Pim1 (from UniProt P06803 1-313) (enzyme) | binds | no binding | binds
2 | Myc-tagged AKT1 (from UniProt P31749 1-480) (enzyme) | – | – | binds
